Results are given in words; binding and its absence hold for the method and conditions named. Some entries that bind do so weakly or less than the wild type.
Legend:
[1] = target: insulin receptor (IR), detected as IR beta chain (IRβ) (human) (UniProt P06213); assay: ex vivo Western blotting of human hippocampal formation tissue, ratio of SOCS3 to IRβ
[2] = target: insulin receptor (IR), detected as IR beta chain (IRβ) (human) (UniProt P06213); assay: ex vivo Western blotting of human hippocampal formation tissue, ratio of SOCS3 to IRβ (figure legend)

Sequences of proteins named here, by UniProt entry; tags and fusion partners are left off. Residues count along the entry.
UniProt P06213, residues 763-1382: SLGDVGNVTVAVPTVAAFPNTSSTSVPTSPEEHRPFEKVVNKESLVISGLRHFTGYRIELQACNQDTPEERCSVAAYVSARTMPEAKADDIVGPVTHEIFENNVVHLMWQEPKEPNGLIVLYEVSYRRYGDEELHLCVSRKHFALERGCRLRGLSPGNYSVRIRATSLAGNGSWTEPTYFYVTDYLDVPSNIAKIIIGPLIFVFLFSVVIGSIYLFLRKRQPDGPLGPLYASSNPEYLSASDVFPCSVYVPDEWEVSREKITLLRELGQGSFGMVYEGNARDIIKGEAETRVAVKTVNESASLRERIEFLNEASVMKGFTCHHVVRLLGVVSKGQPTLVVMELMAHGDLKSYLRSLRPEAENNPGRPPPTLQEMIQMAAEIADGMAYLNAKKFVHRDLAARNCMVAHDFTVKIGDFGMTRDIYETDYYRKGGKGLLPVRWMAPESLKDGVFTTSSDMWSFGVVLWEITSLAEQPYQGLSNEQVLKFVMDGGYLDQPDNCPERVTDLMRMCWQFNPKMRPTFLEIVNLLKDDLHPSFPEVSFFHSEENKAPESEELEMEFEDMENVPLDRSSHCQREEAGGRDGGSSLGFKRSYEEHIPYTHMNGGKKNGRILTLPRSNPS
UniProt O14543: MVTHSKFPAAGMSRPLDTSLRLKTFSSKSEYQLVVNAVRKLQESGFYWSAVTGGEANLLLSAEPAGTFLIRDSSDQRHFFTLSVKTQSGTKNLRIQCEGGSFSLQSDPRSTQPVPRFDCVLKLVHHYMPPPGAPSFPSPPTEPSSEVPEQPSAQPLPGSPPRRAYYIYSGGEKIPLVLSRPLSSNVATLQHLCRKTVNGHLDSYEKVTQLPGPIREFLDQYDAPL

binding [1]: binds
binding [2]: binds
Substance: SOCS3 (suppressor of cytokine signaling 3) (from UniProt O14543 1-225)

Source: patent publication US20170112897A1, “METHODS FOR TREATING BRAIN INSULIN RESISTANCE” (priority 2015, published 2017)
